PubChem BioAssay AID1259271, Sanger Institute, 2017
Here is an unselected part of 160 deposited reagents. Of all reagents, 124 (78%) were called active. 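Each row is one of four siRNAs per gene; gene-level confirmation, requiring two siRNAs in several cell lines, is not included.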 Entries without a mark were called inactive. Reagents against one gene are numbered here. Not all columns of the deposit are shown. Not stated in the record: the amount of reagent, the time to read-out.

- Screen: 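Follow-up check of kinase genes for lethal pairing with a drug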 (follow-up of hits)
- System: RKO colorectal cancer cells
- Knock-down reagent: single siRNA against human genes
- Challenge: anchor drug added to each siRNA well, cetuximab 5 µg/ml, trametinib 10 nM or BYL719 1 µM, compared with DMSO vehicle; exposure length not given
- Detection: 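Survival of cells relative to control pool 2 (non-targeting), replicate average, plus a synergy score for each anchor drug (trametinib 10 nM, cetuximab 5 µg/ml, BYL719 1 µM) compared with DMSO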
- Scale: synergy score with BYL719 and synergy score with cetuximab and synergy score with trametinib: higher = stronger synthetic lethality with the drug
- Call rule: 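Called active if the synergy score passes 0.10 for one or more anchor drugs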
- Meaning of the calls: active = synergy with at least one drug; inactive = no synergy with any drug

CSNK2A2 (casein kinase 2 alpha 2) #1
- synergy score with BYL719: -0.178
- synergy score with cetuximab: 0.0247
- synergy score with trametinib: 0.0857

CSNK2A2 (casein kinase 2 alpha 2) #2
- synergy score with BYL719: -0.109
- synergy score with cetuximab: -0.0485
- synergy score with trametinib: -0.00745

CSNK2A2 (casein kinase 2 alpha 2) #3
- synergy score with BYL719: -0.102 (active)
- synergy score with cetuximab: 0.0139
- synergy score with trametinib: 0.109

CSNK2A2 (casein kinase 2 alpha 2) #4
- synergy score with BYL719: -0.215
- synergy score with cetuximab: 0.0205
- synergy score with trametinib: 0.0244

PAK1 (p21 (RAC1) activated kinase 1) #1
- synergy score with BYL719: 0.0505 (active)
- synergy score with cetuximab: 0.105
- synergy score with trametinib: 0.271

PAK1 (p21 (RAC1) activated kinase 1) #2
- synergy score with BYL719: 0.165 (active)
- synergy score with cetuximab: 0.367
- synergy score with trametinib: 0.331

PAK1 (p21 (RAC1) activated kinase 1) #3
- synergy score with BYL719: 0.295 (active)
- synergy score with cetuximab: 0.295
- synergy score with trametinib: 0.327

PAK1 (p21 (RAC1) activated kinase 1) #4
- synergy score with BYL719: 0.177 (active)
- synergy score with cetuximab: 0.225
- synergy score with trametinib: 0.169

IRAK1 (interleukin 1 receptor associated kinase 1) #1
- synergy score with BYL719: -0.0958 (active)
- synergy score with cetuximab: -0.0239
- synergy score with trametinib: 0.138

IRAK1 (interleukin 1 receptor associated kinase 1) #2
- synergy score with BYL719: -0.139
- synergy score with cetuximab: -0.121
- synergy score with trametinib: -0.186

IRAK1 (interleukin 1 receptor associated kinase 1) #3
- synergy score with BYL719: 0.118 (active)
- synergy score with cetuximab: 0.0581
- synergy score with trametinib: 0.0893

IRAK1 (interleukin 1 receptor associated kinase 1) #4
- synergy score with BYL719: 0.192 (active)
- synergy score with cetuximab: -0.122
- synergy score with trametinib: 0.0486

2 entries from above, arranged by “synergy score with cetuximab”, descending:
CSNK2A2 (casein kinase 2 alpha 2) #4
- synergy score with BYL719: -0.215
- synergy score with cetuximab: 0.0205
- synergy score with trametinib: 0.0244

CSNK2A2 (casein kinase 2 alpha 2) #3
- synergy score with BYL719: -0.102 (active)
- synergy score with cetuximab: 0.0139
- synergy score with trametinib: 0.109
